Experimental data published in PubChem BioAssay AID485314 (National Center for Advancing Translational Sciences (NCATS), 2010).
Screen size: about 340,000 compounds; about 4,500 (1.3%) were called active. Inconclusive results, whose numbers are uncertain, are shown with a selection of clear calls. Calls come from the whole dose curve; as a rule, active = well fitted inhibition curve with a large enough effect; inconclusive = small, poorly fitted or top-dose-only effect, or another doubt; inactive = no such curve, though single readings can be large or run the other way. Where the call is inconclusive, the potency comes from a doubtful curve fit.

Target: DNA polymerase beta (Homo sapiens) (UniProt P06746)
Experiment: qHTS Assay for Inhibitors of DNA Polymerase Beta
Conditions: Pol beta primer extension/strand displacement, fluorescence kinetic; activity change, negative = inhibition: at 114 µM (top of the series)
Procedure, shortened: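 10 nM enzyme + cpd, 15 min RT; start with substrate 50 nM final; read 0 min and after 10 min RT. Corrected, normalized data; 4-parameter Hill curve fit.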
% is set by controls: 0 for no effect and ±100 for the full control effect; potency is the fitted concentration of half-maximal effect.

Structure (SMILES)	Potency	activity change, negative = inhibition
CCn1c(SCC(=O)NC(=O)NCc2ccco2)nc2sc(C)c(C)c2c1=O	active: 20 µM	
CCc1nc(SCC(=O)Nc2nccs2)c2oc3ccccc3c2n1	active: 15.8 µM	
Cc1ccc(O)c(NC(=O)c2nc3nc(C)cc(C(F)F)n3n2)c1	inconclusive: 3.16 µM [inhibitor, full curve, poor fit]	
COC(=O)c1ccc2c(=O)[nH]c(CSc3nnc(C(F)(F)F)n3C)nc2c1	inconclusive: 39.8 µM [inhibitor, single point]	
COc1ccc(CNC(=O)c2cnn3c(C(F)F)cc(C)nc23)cc1	inconclusive: 100 µM [inhibitor, single point]	
Cc1ccc(-c2nc(SCC(=O)NCC3CCCO3)c(-c3ccc(Cl)cc3)[nH]2)cc1 (configuration not stated)	inconclusive: 56.2 µM [inhibitor, partial curve]	
O=C1S/C(=C\c2cccs2)C(=O)N1c1ccc(O)cc1	inconclusive: 50.1 µM [inhibitor, partial curve]	
Cc1ccn2cc(-c3cc4ccccc4oc3=O)nc2c1	inconclusive: 79.4 µM [inhibitor, single point]	
CSc1nc2sc3c(c2c(=O)n1-c1ccc(C)c(Cl)c1)CCN(C(C)=O)C3	inconclusive: 3.55 µM [inhibitor, full curve]	
Cc1ccc(NC(=O)CSc2ccccc2NC(=O)c2ccccc2Cl)cc1Cl	inconclusive: 10 µM [inhibitor, full curve, poor fit]	
CCN1/C(=C/c2ccc3cc(C)ccc3[n+]2CC)Sc2cc(C)c(C)cc21	active: 14.1 µM	
COc1ccc(/C=C/C(=O)Nc2cccc(N3CCOCC3)c2)cc1OC	inconclusive: 39.8 µM [inhibitor, single point]	
COc1cc(C2Nc3ccccc3C(=O)N2c2ccc(Cl)cc2)c(Cl)cc1OCC(=O)O (configuration not stated)	inconclusive: 89.1 µM [inhibitor, single point]	
O=C1c2[nH]nc(-c3ccccc3O)c2C(c2ccccc2F)N1Cc1ccco1 (configuration not stated)	inconclusive: 39.8 µM [inhibitor, single point]	
O=C1SCCC1NS(=O)(=O)c1ccc([N+](=O)[O-])cc1 (configuration not stated)	inconclusive: 50.1 µM [inhibitor, partial curve, poor fit]	
O=C(CCc1c[nH]c2ccccc12)N/N=C/c1ccc2c(c1)OCO2	inconclusive: 6.31 µM [inhibitor, full curve]	
CC(=O)Nc1ccc(NC2(C)C(=O)c3ccccc3C2=O)cc1	inconclusive: 89.1 µM [inhibitor, single point]	
COC(=O)c1ccc(NC(=O)CSc2nc(=O)n(Cc3ccco3)c3c2CCC3)cc1		inactive: -1.45%
O=C(NC(=S)Nn1cnc2c(cnn2-c2ccccc2)c1=O)c1ccc(Cl)cc1	inconclusive: 89.1 µM [inhibitor, single point]	
CCN(CC)CCNC(=O)c1ccc(NC(C)=O)cc1	inconclusive: 31.6 µM [inhibitor, partial curve]	
Fc1ccc(CN2CCN(C(=S)NCCc3ccccc3)CC2)c(Cl)c1	inconclusive: 2.82 µM [inhibitor, single point]	
c1csc(C2CCCN2c2nc3nonc3nc2NC2CC2)n1 (configuration not stated)	inconclusive: 50.1 µM [inhibitor, single point]	
O=C(/C=C/c1ccco1)N1CCN(S(=O)(=O)c2ccc(F)c(F)c2F)CC1	inconclusive: 35.5 µM [inhibitor, full curve]	

4 entries from above, ordered by count of non-hydrogen atoms, ascending.
Structure (SMILES)	Potency	activity change, negative = inhibition
O=C(CCc1c[nH]c2ccccc12)N/N=C/c1ccc2c(c1)OCO2	inconclusive: 6.31 µM [inhibitor, full curve]	
COc1ccc(/C=C/C(=O)Nc2cccc(N3CCOCC3)c2)cc1OC	inconclusive: 39.8 µM [inhibitor, single point]	
Cc1ccc(NC(=O)CSc2ccccc2NC(=O)c2ccccc2Cl)cc1Cl	inconclusive: 10 µM [inhibitor, full curve, poor fit]	
COc1cc(C2Nc3ccccc3C(=O)N2c2ccc(Cl)cc2)c(Cl)cc1OCC(=O)O (configuration not stated)	inconclusive: 89.1 µM [inhibitor, single point]	

The results go on:

Structure (SMILES)	Potency	activity change, negative = inhibition
CC(=O)Cc1c(C(=O)O)c(C)nn1-c1ccccc1	inconclusive: 39.8 µM [inhibitor, single point]	
N#CCCSCc1ccc(C(=O)O)o1	inconclusive: 0.141 µM [inhibitor, full curve, poor fit]	
Cc1nc(N)sc1-c1csc(Nc2ncccn2)n1	inconclusive: 10 µM [inhibitor, full curve]	
O=C(Cn1c(=O)oc2cc(S(=O)(=O)N3CCCCCC3)ccc21)Nc1cccc(C(F)(F)F)c1	inconclusive: 50.1 µM [inhibitor, partial curve]	
COC(=O)c1ccc(COc2ccc(/C=C(\C#N)c3nc4ccccc4[nH]3)cc2OC)o1	active: 8.91 µM	
CN=C1C=C/C(=N/N=c2\ccn(O)cc2C)C=C1C	inconclusive: 25.1 µM [inhibitor, partial curve, poor fit]	
N#C/C(=C(/O)C(Cl)c1ccccc1)c1nc2ccccc2s1 (configuration not stated)	inconclusive: 12.6 µM [inhibitor, partial curve]	
CCCCn1c(=O)[nH]c2nc3cc(N)ccc3nc2c1=O	active: 5.62 µM	
CC(C)c1ccc(NS(=O)(=O)c2ccc3[nH]cc(C(=O)NC4CCCC4)c(=O)c3c2)cc1	active: 20 µM	
COc1cccc2cc(-c3cc(=O)oc4ccc(OCC(C)=O)cc34)oc12		inactive: 13.6%
Cc1ccc(NC(=O)COc2ccccc2)cc1Cl	inconclusive: 7.08 µM [inhibitor, full curve, poor fit]	
CCn1c(SCC(=O)Nc2c(C)n(C)n(-c3ccccc3)c2=O)nnc1-c1cccc(C)c1	inconclusive: 89.1 µM [inhibitor, single point]	
CCc1ccccc1N(C)C(=O)c1cn(CC(C)C)c(=O)c2cc(OC)c(OC)cc12		inactive: 20.3%
O=C(CSc1nc2ccccc2n1Cc1ccccc1Cl)N/N=C/c1ccccc1C(=O)O	inconclusive: 22.4 µM [inhibitor, single point]	
O=C(C1Cc2ccccc2CN1S(=O)(=O)c1ccc(F)cc1)N1CCOCC1 (configuration not stated)		inactive: 10.3%
COc1ccc2nc(SCC(=O)N3CCN(c4ccc(F)cc4)CC3)c(C#N)cc2c1	inconclusive: 0.355 µM [inhibitor, full curve, poor fit]	
Cc1[nH]n2c(=O)c3c(nc2c1-c1ccc(F)cc1)CCCC3	inconclusive: 0.282 µM [inhibitor, full curve, poor fit]	
COc1cccc(-c2nc(CS(=O)CC(=O)NC3CC3)c(C)o2)c1 (configuration not stated)		inactive: -0.507%
CCc1cccc2c1NC(=O)[C@]21[C@@H]2C(=O)N(Cc3ccccc3)C(=O)[C@@H]2[C@@H]2CCCN21	inconclusive: 20 µM [inhibitor, full curve]	
Cc1ccc(Cc2nc3ccccc3nc2SCC(=O)N2CCc3ccccc32)cc1	inconclusive: 79.4 µM [inhibitor, single point]	
COc1ccc(C(=O)Nc2cc(C)c(NC(=O)c3ccccc3OC)cn2)cc1	inconclusive: 44.7 µM [inhibitor, partial curve]	
CCOc1ccc(CCNC(=O)CCc2c(C)nc3c(c(C)nn3-c3ccccc3)c2C)cc1OCC		inactive: 7.79%
CCOC(=O)c1c(C)[nH]c(C=Nc2ccc(OC)cc2)c1O	inconclusive: 35.5 µM [inhibitor, full curve, poor fit]	

Structure (SMILES)	Potency	activity change, negative = inhibition
Cc1ccc(O)c(NC(=S)NC(=O)/C=C/c2ccco2)c1	inconclusive: 1.58 µM [inhibitor, full curve, poor fit]	
O=C(COC(=O)c1cccnc1Cl)NCc1ccco1	active: 15.8 µM	
CC1(C)Oc2ccc(C(=O)NN)cc2NC1=O		inactive: 0.709%
O=C(CCNS(=O)(=O)c1ccc(Br)cc1)NC1CCCCC1		inactive: 0.805%
Cc1cc(C)n(CCc2nc(-c3ccco3)cs2)n1	active: 31.6 µM	
Cc1ccc(NC(=O)c2nc(S(C)(=O)=O)ncc2N(Cc2ccccc2)Cc2ccco2)c(C)c1	inconclusive: 89.1 µM [inhibitor, single point]	
O=C(N/N=C/c1ccco1)c1cc(-c2ccc(Cl)s2)[nH]n1	inconclusive: 89.1 µM [inhibitor, single point]	
CCOc1ccc2oc(=O)cc(CN3CCN(c4cc(C)ccc4C)CC3)c2c1		inactive: 23.4%
COc1ccc(C2C(C#N)=C(C)NC3=C2S(=O)(=O)c2ccccc23)cc1 (configuration not stated)	inconclusive: 89.1 µM [inhibitor, single point]	
O=C(NCc1ccc(F)cc1)c1ccc(CS(=O)(=O)c2ccc(Br)cc2)o1	inconclusive: 3.98 µM [inhibitor, single point]	
CC(C)CC(COCc1ccc(C(F)(F)F)cc1)N1CCN(C(=O)c2ccc(C(F)(F)F)cc2)CCC1=O (configuration not stated)	inconclusive: 3.98 µM [inhibitor, full curve, poor fit]	
CC(C)(C)NC(=O)NC(=O)COC(=O)Cc1coc2ccc3ccccc3c12	inconclusive: 79.4 µM [inhibitor, single point]	
CCc1ccc(C(C)NC(=S)NCc2ccc(F)cc2)cc1 (configuration not stated)		inactive: 1.3%
COC(=O)CCCCC1SCC(NC(=O)c2ccccc2)C1=O (configuration not stated)		inactive: -29%
CN(C)CCN(C(=O)CCS(=O)(=O)c1ccccc1)c1nc2cc3c(cc2s1)OCO3	inconclusive: 39.8 µM [inhibitor, single point]	
CCOC(=O)c1cnc2nc(NCc3ccc(OC)c(OC)c3)[nH]n2c1=O	active: 35.5 µM	
CCCCn1c(SCC(=O)NCc2ccco2)nnc1-c1ccoc1C	inconclusive: 25.1 µM [inhibitor, full curve, poor fit]	
CSCC[C@H](NC(=O)C1CCN(S(=O)(=O)c2ccc(C)cc2)CC1)C(=O)NCc1ccco1	inconclusive: 0.447 µM [inhibitor, full curve, poor fit]	
COc1ccc(-c2nc(-c3ccc(O)cc3O)cs2)cc1OC	inconclusive: 44.7 µM [inhibitor, partial curve]	
Cc1c(Cl)cnc(NC(=O)COC(=O)CCS(=O)(=O)c2ccccc2)c1Cl	inconclusive: 44.7 µM [inhibitor, partial curve]	
O=C(CSc1ncnc2[nH]ncc12)Nc1nc(-c2ccc(F)c(F)c2)cs1	inconclusive: 44.7 µM [inhibitor, partial curve]	
